These are yes or no findings as the source states them, for the method shown. Some results given as binding are weak or reduced against the parent protein; the word gives no strength. Blank lines part the entries; values can stand above or below the binder they belong to.
Legend:
[1] = biological target: T1, CFHR5 (complement factor H-related protein 5), wild type (human), Q9BXR6; test: serum immunoprecipitation with anti-CFHR5, western blot with MBC125; conditions: remark: other sources report otherwise
T1 chain: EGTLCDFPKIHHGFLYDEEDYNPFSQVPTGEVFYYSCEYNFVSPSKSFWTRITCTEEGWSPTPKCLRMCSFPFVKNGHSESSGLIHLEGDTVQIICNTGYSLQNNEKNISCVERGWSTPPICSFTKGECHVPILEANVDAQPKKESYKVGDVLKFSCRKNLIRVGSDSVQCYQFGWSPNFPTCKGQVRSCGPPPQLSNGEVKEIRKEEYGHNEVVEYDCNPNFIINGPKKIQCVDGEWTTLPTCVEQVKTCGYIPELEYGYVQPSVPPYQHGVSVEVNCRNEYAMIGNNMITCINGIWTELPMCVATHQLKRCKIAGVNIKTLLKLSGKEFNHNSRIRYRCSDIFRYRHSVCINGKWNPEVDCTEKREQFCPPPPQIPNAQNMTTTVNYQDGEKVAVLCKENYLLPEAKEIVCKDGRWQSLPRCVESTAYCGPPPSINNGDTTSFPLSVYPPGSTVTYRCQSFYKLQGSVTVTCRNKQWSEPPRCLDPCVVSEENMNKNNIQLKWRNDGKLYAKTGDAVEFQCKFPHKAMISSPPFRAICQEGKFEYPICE

Protein sequences, listed by entry. Tags and fused reporters are not part of them. Residues count along the entry.
UniProt P01027, residues 955-1303: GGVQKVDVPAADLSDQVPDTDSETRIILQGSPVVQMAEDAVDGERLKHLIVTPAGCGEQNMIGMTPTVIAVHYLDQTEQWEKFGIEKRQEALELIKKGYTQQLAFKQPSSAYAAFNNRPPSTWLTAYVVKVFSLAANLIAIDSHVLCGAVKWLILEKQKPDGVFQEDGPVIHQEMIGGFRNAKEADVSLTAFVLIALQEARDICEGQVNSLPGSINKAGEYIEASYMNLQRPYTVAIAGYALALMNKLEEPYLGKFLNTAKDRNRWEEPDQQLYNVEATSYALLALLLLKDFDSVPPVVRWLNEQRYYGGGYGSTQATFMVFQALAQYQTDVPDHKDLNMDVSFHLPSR

[2] = biological target: mouse complement C3 bound to the glomerular basement membrane (mouse) (UniProt P01027); test: glomerular immunofluorescence, Cfh-/- mice
[3] = biological target: mouse complement C3 bound to the glomerular basement membrane (mouse) (UniProt P01027); test: glomerular CFHR5 staining in vivo (30, 15, 7.5 and 3.8 µg doses) and ex vivo on kidney sections
[4] = biological target: mouse complement C3 bound to the glomerular basement membrane (mouse) (UniProt P01027); test: glomerular immunofluorescence, repeat with a separate protein batch
[5] = biological target: T1, CFHR5 (complement factor H-related …); test: sandwich ELISA on serum, anti-CFHR5 capture and anti-CFHR2 detection; conditions: remark: other sources report otherwise

binding [1]: binds
B1: CFHR1 (complement factor H-related protein 1), purified from serum, Q03591 19-330 (protein)
chain: EATFCDFPKINHGILYDEEKYKPFSQVPTGEVFYYSCEYNFVSPSKSFWTRITCTEEGWSPTPKCLRLCFFPFVENGHSESSGQTHLEGDTVQIICNTGYRLQNNENNISCVERGWSTPPKCRSTDTSCVNPPTVQNAHILSRQMSKYPSGERVRYECRSPYEMFGDEEVMCLNGNWTEPPQCKDSTGKCGPPPPIDNGDITSFPLSVYAPASSVEYQCQNLYQLEGNKRITCRNGQWSEPPKCLHPCVISREIMENYNIALRWTAKQKLYLRTGESAEFVCKRGYRLSSRSHTLRTTCWDGKLEYPTCAKR

binding [2]: binds
binding [3]: binds
B2: CFHR5 (complement factor H-related protein 5), wild type (protein)
chain: EGTLCDFPKIHHGFLYDEEDYNPFSQVPTGEVFYYSCEYNFVSPSKSFWTRITCTEEGWSPTPKCLRMCSFPFVKNGHSESSGLIHLEGDTVQIICNTGYSLQNNEKNISCVERGWSTPPICSFTKGECHVPILEANVDAQPKKESYKVGDVLKFSCRKNLIRVGSDSVQCYQFGWSPNFPTCKGQVRSCGPPPQLSNGEVKEIRKEEYGHNEVVEYDCNPNFIINGPKKIQCVDGEWTTLPTCVEQVKTCGYIPELEYGYVQPSVPPYQHGVSVEVNCRNEYAMIGNNMITCINGIWTELPMCVATHQLKRCKIAGVNIKTLLKLSGKEFNHNSRIRYRCSDIFRYRHSVCINGKWNPEVDCTEKREQFCPPPPQIPNAQNMTTTVNYQDGEKVAVLCKENYLLPEAKEIVCKDGRWQSLPRCVESTAYCGPPPSINNGDTTSFPLSVYPPGSTVTYRCQSFYKLQGSVTVTCRNKQWSEPPRCLDPCVVSEENMNKNNIQLKWRNDGKLYAKTGDAVEFQCKFPHKAMISSPPFRAICQEGKFEYPICE

binding [2]: binds
binding [4]: binds
B3: CFHR5 dimer mutant (Tyr34Ser, Ser36Tyr, Tyr39Glu) (protein)
chain: EGTLCDFPKIHHGFLYDEEDYNPFSQVPTGEVFSYYCEENFVSPSKSFWTRITCTEEGWSPTPKCLRMCSFPFVKNGHSESSGLIHLEGDTVQIICNTGYSLQNNEKNISCVERGWSTPPICSFTKGECHVPILEANVDAQPKKESYKVGDVLKFSCRKNLIRVGSDSVQCYQFGWSPNFPTCKGQVRSCGPPPQLSNGEVKEIRKEEYGHNEVVEYDCNPNFIINGPKKIQCVDGEWTTLPTCVEQVKTCGYIPELEYGYVQPSVPPYQHGVSVEVNCRNEYAMIGNNMITCINGIWTELPMCVATHQLKRCKIAGVNIKTLLKLSGKEFNHNSRIRYRCSDIFRYRHSVCINGKWNPEVDCTEKREQFCPPPPQIPNAQNMTTTVNYQDGEKVAVLCKENYLLPEAKEIVCKDGRWQSLPRCVESTAYCGPPPSINNGDTTSFPLSVYPPGSTVTYRCQSFYKLQGSVTVTCRNKQWSEPPRCLDPCVVSEENMNKNNIQLKWRNDGKLYAKTGDAVEFQCKFPHKAMISSPPFRAICQEGKFEYPICE

binding [5]: binds
B4: CFHR2 (complement factor H-related protein 2), native in serum, P36980 19-270 (protein)
chain: EAMFCDFPKINHGILYDEEKYKPFSQVPTGEVFYYSCEYNFVSPSKSFWTRITCAEEGWSPTPKCLRLCFFPFVENGHSESSGQTHLEGDTVQIICNTGYRLQNNENNISCVERGWSTPPKCRSTISAEKCGPPPPIDNGDITSFLLSVYAPGSSVEYQCQNLYQLEGNNQITCRNGQWSEPPKCLDPCVISQEIMEKYNIKLKWTNQQKLYSRTGDIVEFVCKSGYHPTKSHSFRAMCQNGKLVYPSCEEK

— US20150361183A1
